Experimental data taken from paper PMC9511784.
No constants are given. Whether binding was seen depends on the method and setting. In cells and extracts the contact can be indirect. Some results given as binding are weak or reduced against the parent protein; the word gives no strength. For some assays here: Tags and fused reporters may be left off the sequences shown.

By UniProt entry, the sequences of proteins in these tests, tags left out.
UniProt P51149: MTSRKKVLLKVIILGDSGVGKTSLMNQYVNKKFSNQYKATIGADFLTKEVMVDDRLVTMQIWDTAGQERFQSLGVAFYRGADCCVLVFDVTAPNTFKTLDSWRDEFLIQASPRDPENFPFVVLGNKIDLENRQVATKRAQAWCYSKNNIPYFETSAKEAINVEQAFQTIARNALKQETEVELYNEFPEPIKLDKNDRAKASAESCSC

Key:
[1] = molecular target: T1, myc-tagged full length GSDMB (Gasdermin B) (human) (UniProt Q8TAX9); assay: co-IP; HCC1954 control (empty vector), GB and GB92-416 cells after CQ and lapatinib plus CQ treatment; which protein was precipitated is not told in the text shown
T1 sequence: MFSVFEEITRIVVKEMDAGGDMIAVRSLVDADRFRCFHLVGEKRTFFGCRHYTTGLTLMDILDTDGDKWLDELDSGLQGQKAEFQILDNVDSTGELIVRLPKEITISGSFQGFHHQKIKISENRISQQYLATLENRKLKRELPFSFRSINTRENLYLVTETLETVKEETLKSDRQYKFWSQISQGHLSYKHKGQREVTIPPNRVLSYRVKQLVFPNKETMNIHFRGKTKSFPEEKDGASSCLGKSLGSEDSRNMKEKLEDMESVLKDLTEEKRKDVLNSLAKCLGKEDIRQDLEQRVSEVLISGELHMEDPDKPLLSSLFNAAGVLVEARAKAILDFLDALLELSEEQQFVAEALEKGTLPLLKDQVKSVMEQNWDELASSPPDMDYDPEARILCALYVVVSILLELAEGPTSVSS

[2] = molecular target: T2, GSDMB C-terminal fragment GB92-416 (produced by caspase 3/6/7 processing) (human) (UniProt Q8TAX9); assay: as above
T2 sequence: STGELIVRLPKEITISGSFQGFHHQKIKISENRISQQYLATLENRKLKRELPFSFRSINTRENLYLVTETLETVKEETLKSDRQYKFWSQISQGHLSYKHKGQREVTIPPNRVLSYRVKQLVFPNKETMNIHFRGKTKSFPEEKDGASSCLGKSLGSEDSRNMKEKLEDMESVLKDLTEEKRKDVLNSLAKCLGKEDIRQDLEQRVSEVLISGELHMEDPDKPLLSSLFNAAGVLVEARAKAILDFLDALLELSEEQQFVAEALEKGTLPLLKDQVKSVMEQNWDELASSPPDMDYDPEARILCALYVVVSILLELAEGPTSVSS

binding [1]: binds | binding [2]: no binding
Substance: Ras-related protein Rab-7 (Rab7a) (from UniProt P51149 1-207)
